Taken from: PubChem BioAssay AID504764 (Drosophila RNAi Screening Center, 2011)
Aim: 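Knock-downs that raise or lower a Notch target reporter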 (primary screen). Cells: Drosophila Kc167 cells. Knock-down reagent: long dsRNA against Drosophila genes. Time to read-out: about 5 days (4 days dsRNA, then 24 h after transfection). Conditions: transfection of constitutively active membrane-tethered Notch lacking the extracellular domain, read 24 h later. Measurement: 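Light from a Notch-responsive E(spl)m3 luciferase reporter under active Notch, with control-promoter and no-Notch reporter wells to normalise; raw counts from paired wells a and b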. Direction: induced reporter light, run 1, well a and induced reporter light, run 1, well b: higher = more light from the Notch target reporter with active Notch; control promoter light, run 1, well a and control promoter light, run 1, well b: higher = more light from the viral control promoter (cell number, transfection, viability); uninduced reporter light, run 1, well a: higher = more light from the Notch target reporter without active Notch. Hit rule: 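Wells with low control signal or poorly matching duplicates excluded; duplicates averaged; per source plate, z beyond ±2 for induced/control log2 ratio or beyond ±1.8 for induced/uninduced marks a hit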. Meaning of the calls: active = modifier hit (raised or lowered Notch signal); inactive = not a hit.
In all, the deposit lists about 22,000 reagents; this is a random part of those that have a named target and a result. Over the whole deposit, 403 (1.9%) were called active. 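Unnormalised raw counts per well; ratio z-scores behind the hit calls and whether each hit raises or lowers signal are not deposited.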 Not stated in the record: the amount of reagent.

With Art1 (Arginine methyltransferase 1) [DRSC16063], what does the deposit list?
induced reporter light, run 1, well a: 1.61e5; induced reporter light, run 1, well b: 1.15e5; control promoter light, run 1, well a: 1.02e5; control promoter light, run 1, well b: 1.05e5; uninduced reporter light, run 1, well a: 12770; Outcome: inactive

With Ir93a (Ionotropic receptor 93a) [DRSC15212], how do the results read?
induced reporter light, run 1, well a: 29065; induced reporter light, run 1, well b: 34830; control promoter light, run 1, well a: 28620; control promoter light, run 1, well b: 38140; uninduced reporter light, run 1, well a: 2395; Outcome: inactive

Which result is listed for Ir93a (Ionotropic receptor 93a) [DRSC15213]?
induced reporter light, run 1, well a: 1.73e5; induced reporter light, run 1, well b: 1.47e5; control promoter light, run 1, well a: 1.27e5; control promoter light, run 1, well b: 1.17e5; uninduced reporter light, run 1, well a: 11545; Outcome: active

With CG42615 [DRSC05121], what does the deposit list?
induced reporter light, run 1, well a: 42370; induced reporter light, run 1, well b: 52285; control promoter light, run 1, well a: 67905; control promoter light, run 1, well b: 70275; uninduced reporter light, run 1, well a: 2415; Outcome: inactive

What is on record for CG8435 [DRSC07179]?
induced reporter light, run 1, well a: 99395; induced reporter light, run 1, well b: 91525; control promoter light, run 1, well a: 2.06e5; control promoter light, run 1, well b: 1.91e5; uninduced reporter light, run 1, well a: 8110; Outcome: inactive

With CG31709 [DRSC01081], how do the results read?
induced reporter light, run 1, well a: 1.42e5; induced reporter light, run 1, well b: 1.12e5; control promoter light, run 1, well a: 1.79e5; control promoter light, run 1, well b: 1.25e5; uninduced reporter light, run 1, well a: 12520; Outcome: inactive

Which result is listed for CG17294 [DRSC02596]?
induced reporter light, run 1, well a: 94840; induced reporter light, run 1, well b: 90115; control promoter light, run 1, well a: 84900; control promoter light, run 1, well b: 99325; uninduced reporter light, run 1, well a: 8110; Outcome: inactive

For edin (elevated during infection) [DRSC09488], how do the results read?
induced reporter light, run 1, well a: 2.02e5; induced reporter light, run 1, well b: 1.79e5; control promoter light, run 1, well a: 2.77e5; control promoter light, run 1, well b: 1.98e5; uninduced reporter light, run 1, well a: 16640; Outcome: inactive

For Ugt50B3 (UDP-glycosyltransferase family 50 member B3) [DRSC04778], what does the deposit list?
induced reporter light, run 1, well a: 43450; induced reporter light, run 1, well b: 58945; control promoter light, run 1, well a: 71280; control promoter light, run 1, well b: 68790; uninduced reporter light, run 1, well a: 4015; Outcome: inactive

For Ugt50B3 (UDP-glycosyltransferase family 50 member B3) [DRSC04779], what was measured?
induced reporter light, run 1, well a: 72480; induced reporter light, run 1, well b: 83995; control promoter light, run 1, well a: 1.19e5; control promoter light, run 1, well b: 1.17e5; uninduced reporter light, run 1, well a: 4115; Outcome: inactive

For Cox10 (Cytochrome c oxidase assembly factor 10) [DRSC02804], what was measured?
induced reporter light, run 1, well a: 2.18e5; induced reporter light, run 1, well b: 2.21e5; control promoter light, run 1, well a: 1.78e5; control promoter light, run 1, well b: 1.80e5; uninduced reporter light, run 1, well a: 15175; Outcome: inactive

Which result is listed for CG30287 [DRSC03875]?
induced reporter light, run 1, well a: 1.08e5; induced reporter light, run 1, well b: 99805; control promoter light, run 1, well a: 1.00e5; control promoter light, run 1, well b: 1.10e5; uninduced reporter light, run 1, well a: 8730; Outcome: inactive

With upd1 (unpaired 1) [DRSC20358], what does the deposit list?
induced reporter light, run 1, well a: 40835; induced reporter light, run 1, well b: 26540; control promoter light, run 1, well a: 27290; control promoter light, run 1, well b: 20860; uninduced reporter light, run 1, well a: 2742; Outcome: inactive

What did the screen give for e(y)3 (enhancer of yellow 3) [DRSC19450]?
induced reporter light, run 1, well a: 1.53e5; induced reporter light, run 1, well b: 2.11e5; control promoter light, run 1, well a: 1.38e5; control promoter light, run 1, well b: 1.00e5; uninduced reporter light, run 1, well a: 12765; Outcome: inactive

For Ctps (CTP synthase) [DRSC09342], what was measured?
induced reporter light, run 1, well a: 1.62e5; induced reporter light, run 1, well b: 1.44e5; control promoter light, run 1, well a: 2.82e5; control promoter light, run 1, well b: 2.06e5; uninduced reporter light, run 1, well a: 18620; Outcome: inactive

With Ctps (CTP synthase) [DRSC10728], what does the deposit list?
induced reporter light, run 1, well a: 1.29e5; induced reporter light, run 1, well b: 1.47e5; control promoter light, run 1, well a: 1.01e5; control promoter light, run 1, well b: 1.08e5; uninduced reporter light, run 1, well a: 10550; Outcome: inactive

With Ctps (CTP synthase) [DRSC10729], what was measured?
induced reporter light, run 1, well a: 1.16e5; induced reporter light, run 1, well b: 1.01e5; control promoter light, run 1, well a: 1.78e5; control promoter light, run 1, well b: 2.25e5; uninduced reporter light, run 1, well a: 10180; Outcome: inactive

For Ptpmeg (Protein tyrosine phosphatase Meg) [DRSC08684], how do the results read?
induced reporter light, run 1, well a: 1.11e5; induced reporter light, run 1, well b: 1.03e5; control promoter light, run 1, well a: 2.06e5; control promoter light, run 1, well b: 2.13e5; uninduced reporter light, run 1, well a: 8100; Outcome: inactive
